Test results published in PubChem BioAssay AID588497 (NMMLSC, 2011).
In all, about 360,000 compounds went through this assay and about 780 (0.22%) were called active. The shares of active, inactive and inconclusive entries below differ from those in the screen. Cut-off read from the data, not from the text of the source: active = inhibition above about 35% (passing the limit was not always enough); inconclusive = no clear call, values can overlap the other calls.

tested on: Botulinum neurotoxin type F light chain protease (Clostridium botulinum); experiment: BoNT/F light chain protease inhibitors, primary screen, biochemical, flow cytometry, MLPCN library (AID 588497); details: Multiplex microsphere protease cleavage assay, at 10 µM, hits give high values; note: plate controls were buffer without enzyme for full effect and enzyme alone for no effect

Structure (SMILES)	inhibition
CCN(C(=O)COc1cc(OC)ccc1C(C)=O)C1CCS(=O)(=O)C1 (stereo not given)	inactive: 6.6%
CC(C)(C)OC(=O)NCc1n[nH]c(=S)n1C1CC1	inconclusive: 9%
S=C(NCCSCc1c(Cl)cccc1Cl)Nc1ccccc1	inconclusive: -457%
COc1ccc(-c2csc3nc(-c4ccc(C)cc4)oc(=O)c23)cc1OC	inactive: -2.5%
Cc1nc(NCCOc2ccccc2)sc1C(=O)Nc1ccccc1	inconclusive: -67.8%
CN(C(=O)COC(=O)C1CCN(S(=O)(=O)c2ccc3c(c2)OCCO3)CC1)C1CCS(=O)(=O)C1 (stereo not given)	inconclusive: -13.5%
Cc1ccc(C(=O)N/N=C/c2ccc(-c3cccc(Cl)c3)o2)cn1	inconclusive: 87.7%
CCOC(=O)c1c(-c2cccs2)csc1NC(=O)COC(=O)c1c(C)noc1C	inactive: -2.6%
CCOc1ccccc1NC(=O)C1CCCCN1S(=O)(=O)c1ccccc1 (stereo not given)	inactive: -0.8%
CCOC(=O)C(CCCCCCP(=O)(c1ccccc1)c1ccccc1)NC(C)=O (stereo not given)	inconclusive: -24.6%
CC(C)(C)c1ccc(NC(=S)NCc2cccnc2)cc1	inconclusive: 35.6%
COc1ccccc1CC(=O)Nc1ncc(C)s1	inactive: 12.5%
CCN(CC(=O)Nc1c(F)cccc1F)C(=O)Cc1csc(-c2ccccc2)n1	inactive: 5.7%
Cc1ccc(C)c(C(C)NC(=O)Cc2cccs2)c1 (stereo not given)	inconclusive: -15.3%
CC(C)(C)OC(=O)Nc1ncnc2c1ncn2C1OC(CO)C2OC(C)(C)OC21 (stereo not given)	inconclusive: 22.3%
Nc1cc(C(Cl)=C(Cl)Cl)c(S(N)(=O)=O)cc1S(N)(=O)=O	inactive: 5.3%
O=C(Nc1cccc(Cl)c1)C1CC1c1ccccc1 (stereo not given)	inconclusive: -46.7%
Cn1cc(Br)c(NC(=O)/C=C/C(=O)O)n1	inconclusive: -19%
Cc1cc(C)c(C#N)c(Nc2ccccc2C)n1	inconclusive: 8.4%
COc1cc2c(cc1OC)C(c1cc(Br)ccc1F)N(C(=O)CCl)CC2 (stereo not given)	inconclusive: 15.1%
c1ccc(NN=C(c2ccccc2)c2cccs2)cc1	inactive: -14.8%
O=[N+]([O-])c1cccc(/C=C/c2ccc3cccc(O)c3n2)c1	inconclusive: -14.1%
COc1cc2c(C(=O)N3CCN(c4cccc(Cl)c4)CC3)cn(CC(C)C)c(=O)c2cc1OC	active: 38%

Structure (SMILES)	inhibition
Cn1c(=O)c2[nH]c(N3CCN(c4ccccc4)CC3)nc2n(C)c1=O	inactive: -6.4%
CCNc1nc(NCC)nc(N(CC)C(N)=S)n1	inconclusive: -124%
CC(Sc1ccccc1)C(=O)NNC(=O)c1ccncc1 (stereo not given)	inconclusive: 2.9%
CCCNC(=O)c1nn2c(C(F)(F)F)cc(-c3ccccc3)nc2c1Br	inconclusive: 7.8%
Cc1cccc(NC(=O)c2ccc3c(c2)CCN3S(C)(=O)=O)c1	inconclusive: -4.3%
CC(=O)c1ccc(NC(=O)c2ccc3nc(-c4ccco4)c(-c4ccco4)nc3c2)cc1	inconclusive: -37.1%
CCn1c(CCNC(=O)c2ccc(OC)c(OC)c2)nc2ccccc21	active: 39.8%
O=c1nc(SCc2ccc(Cl)cc2)nc(-c2ccccc2)[nH]1	inconclusive: 19.9%
O=C(CSC1=NCCS1)NC1CCCCC1	inconclusive: -51.3%
CCCCn1cnc2c(c(-c3ccccc3)c(-c3ccccc3)n2Cc2ccco2)c1=N	inconclusive: -73.8%
CC(=O)c1cccc(NC(=S)Nc2cccc3ccccc23)c1	inactive: 7.9%
CC1CCc2c(sc(NC(=O)CSc3nc(N)cc(=O)[nH]3)c2C(N)=O)C1 (stereo not given)	inconclusive: -14.5%
O=[N+]([O-])c1ccc(NCCNCCOc2nonc2-c2ccccc2)c([N+](=O)[O-])c1	inactive: -9.7%
CSc1nsc(SC)c1C(=O)Nc1ccc(Cl)cc1	inconclusive: 22.9%
O=C1N=C(N2CCOCC2)S/C1=C/c1cc2c(cc1[N+](=O)[O-])OCO2	inconclusive: -19.1%
O=C(CN1CCN(S(=O)(=O)c2ccc(Br)cc2)CC1)N/N=C/c1ccncc1	inactive: -3.2%
CC(C)n1cc(C(=O)NC2CC(C)(C)Cc3c2cnn3-c2ccccc2)cn1 (stereo not given)	inactive: 6.9%
CCCC12CN3CC(C)(CN(C1)C3c1cccs1)C2=O (stereo not given)	inactive: -3%
COc1ccccc1NC(=O)c1cn(CCC#N)nc1-c1cccc(Cl)c1	inconclusive: -44.7%
Cc1cc(C)cc(CC2CC(=O)N(c3ccc([N+](=O)[O-])cc3)C2=O)c1 (stereo not given)	inconclusive: -19.3%
COc1ccc(C(=O)N/N=C(/C)c2ccc(N3CCCCC3)cc2)cc1	inactive: -4.6%
O/N=C/c1ccc2ccccc2n1	active: 40.7%
O=C(CSCc1ccc(Cl)cc1)NCc1ccccn1	inactive: -2%

Reprinted at random: 2 records from the list, in no set order.
Structure (SMILES)	inhibition
CCNc1nc(NCC)nc(N(CC)C(N)=S)n1	inconclusive: -124%
O=[N+]([O-])c1ccc(NCCNCCOc2nonc2-c2ccccc2)c([N+](=O)[O-])c1	inactive: -9.7%

Further compounds follow:

Structure (SMILES)	inhibition
O=C(CC1SC(N2CCCCC2)=NC1=O)Nc1ccc(C(=O)NCCc2ccc(F)cc2)cc1 (stereo not given)	inactive: -3.3%
CC(C)(C)c1ccc(CC(=O)N2CCC2(C)C(=O)NCc2ccc(Cl)cc2)cc1 (stereo not given)	inactive: -0.7%
CCN(CC)c1ccc(C2Nc3cccc4cccc(c34)N2)cc1	inconclusive: -53.4%
O=[N+]([O-])c1ccccc1OCCNCc1ccccc1	inconclusive: 17.5%
Cc1cc(NS(=O)(=O)c2ccc(NC(=S)Nc3ccc(Cl)cc3C)cc2)no1	inconclusive: -66.2%
CC(CN1CCCCC1)OC(=O)COc1ccc(Br)cc1 (stereo not given)	inconclusive: 22.2%
CN(C(=O)c1ccc(NC(=O)Cc2cccc(NC(=O)C3CCCN(C(=O)C4CCCC4)C3)c2)cc1)C1CCCC1 (stereo not given)	inactive: 1.4%
CCc1ccc(C(=O)NNC(=O)C2CC(=O)N(Cc3ccccc3)C2)cc1 (stereo not given)	inactive: -5.4%
COc1ccc(CN(C)C(=O)/C=C/[C@H]2O[C@@H](n3cc(C)c(=O)[nH]c3=O)C[C@@H]2O)cc1OC	inactive: -9.6%
CCCCOC(=O)Cn1c(=O)n(CC(=O)OCCCC)c2cc(C)ccc21	inconclusive: -41.2%
CN(C)c1ccc(C(=O)Nc2nnc(C3=COCCO3)o2)cc1	inactive: 1.4%
Cc1ccc(C(=O)Nc2cccc(C(O)c3ccccc3)c2)cc1 (stereo not given)	inconclusive: 33.5%
O=C(NC(=S)NCCN1CCOCC1)c1ccc(Cl)cc1	active: 54.4%
COc1cccc(N2CCN(C(=O)C3CCC(=O)N(C4CCCCCC4)C3)CC2)c1 (stereo not given)	inactive: -8.2%
c1ccc(Nc2nc(-c3ccccc3)nc3ccccc23)cc1	inconclusive: -3.9%
COC(=O)C(=N/Nc1ccccc1C(=O)OC)/C(C)=N/O	inconclusive: 37.9%
c1ccc(N2CCN(Cc3ccc4c(c3)OCO4)CC2)nc1	inconclusive: 10.6%
CC(=O)NC(c1ccc(C)cc1)c1cc(Cl)c2cccnc2c1O (stereo not given)	inconclusive: 27.7%
C=CCNC(=S)NNC(=O)Cn1c(-c2ccccc2)cc(=O)n2ncnc12	inconclusive: 65.9%
COc1ccc(-c2nc3ccccc3c(=O)n2-c2c(C)n(C)n(-c3ccccc3)c2=O)cc1	inconclusive: -118%
CC(C)NC(=O)N(C)C[C@@H]1Oc2ccc(NC(=O)CCN3CCOCC3)cc2CC(=O)N([C@@H](C)CO)C[C@@H]1C	inactive: 0.3%
CCN(CCCNC(=O)COc1cc(=O)n(C)c2ccccc12)c1ccccc1	inactive: 0.8%
CCCCCCc1cc2cc(-c3nnc(-c4ccccc4OC)o3)c(=O)oc2cc1O	inactive: 0.5%

Structure (SMILES)	inhibition
O=C(CC1CCCCC1)NCCS(=O)(=O)N1CCN(c2ccccc2)CC1	inconclusive: -5.2%
COc1ccc(CC(=O)O/N=C(\N)c2ccc(C)cc2)cc1	inconclusive: 8.8%
COc1cccc(/C=N/n2c(C3CCCCC3)n[nH]c2=S)c1O	inactive: 20.9%
CC(C)CNC(=S)NC(=O)c1csc([N+](=O)[O-])c1	inconclusive: 146%
COC(=O)c1sc(SC)c2c1CC(C)(C)C/C2=N/O	inactive: -6.3%
COc1cc(C)c(CN2CC=C(c3ccc(F)cc3)CC2)cc1C	inconclusive: 19.5%
COc1ccc(NC(=O)c2cc(-c3ccc(C)cc3)on2)cc1OC	inconclusive: 37.5%
COc1cc(Cl)cc(CN2CCC(CCC(=O)NC3CC3)CC2)c1OC	inconclusive: -6.8%
CC1CCCN(C(=O)Cn2nnc(-c3ccc([N+](=O)[O-])cc3)n2)C1 (stereo not given)	inconclusive: 8.9%
c1ccc(-c2cc3cc4c(cc3cn2)OCO4)cc1	inactive: -2.4%
Cc1cccc(-c2ocnc2C(=O)Nc2ncc(C)s2)c1	inactive: -8.1%
Cc1nnc(N2C(=O)c3ccc(Br)cc3C2=O)s1	inconclusive: 27.1%
C/C(=N\OC(=O)Nc1ccccc1)c1cnn(-c2cc(C(F)(F)F)cc(C)n2)c1C	inconclusive: 169%
C/C(=N\Nc1cccc(Cl)c1)C1(C)N(O)C(C)(C)C(c2ccco2)=[N+]1[O-] (stereo not given)	inconclusive: -4.9%
CN(C)c1ccnc(-n2cccc2/C=N/OCc2ccccc2)c1C#N	inconclusive: -74.8%
CCn1c(SC/C=C/c2ccccc2)nnc1-c1cnccn1	inactive: -3.9%
Cc1noc(C)c1COC(=O)c1ccc(F)c(S(=O)(=O)N2CCOCC2)c1	inactive: 5.5%
O=S(=O)(Nc1ccc2c(c1)nc1n2CCN(Cc2ccccc2)C1)c1ccc(Cl)cc1	inconclusive: -31.8%
CCOC(=O)N1CCN(C(=O)c2cn(CC)c3ccc(S(=O)(=O)N4CC(C)CC(C)C4)cc3c2=O)CC1 (stereo not given)	inactive: 0.3%
Cc1cc(O)c(C(C[N+](=O)[O-])c2ccc(Cl)cc2)c(=O)o1 (stereo not given)	inactive: 11.7%
COC(CSc1ncnc2c1oc1nc3c(cc12)COC(C)(C)C3)OC	inconclusive: -9.1%

Gathered by group, those above containing an aryl methoxy group
Structure (SMILES)	inhibition
CCN(C(=O)COc1cc(OC)ccc1C(C)=O)C1CCS(=O)(=O)C1 (stereo not given)	inactive: 6.6%
COc1ccc(-c2csc3nc(-c4ccc(C)cc4)oc(=O)c23)cc1OC	inactive: -2.5%
COc1ccccc1CC(=O)Nc1ncc(C)s1	inactive: 12.5%
COc1cc2c(cc1OC)C(c1cc(Br)ccc1F)N(C(=O)CCl)CC2 (stereo not given)	inconclusive: 15.1%
COc1cc2c(C(=O)N3CCN(c4cccc(Cl)c4)CC3)cn(CC(C)C)c(=O)c2cc1OC	active: 38%
CCn1c(CCNC(=O)c2ccc(OC)c(OC)c2)nc2ccccc21	active: 39.8%
COc1ccccc1NC(=O)c1cn(CCC#N)nc1-c1cccc(Cl)c1	inconclusive: -44.7%
COc1ccc(C(=O)N/N=C(/C)c2ccc(N3CCCCC3)cc2)cc1	inactive: -4.6%
COc1ccc(CN(C)C(=O)/C=C/[C@H]2O[C@@H](n3cc(C)c(=O)[nH]c3=O)C[C@@H]2O)cc1OC	inactive: -9.6%
COc1cccc(N2CCN(C(=O)C3CCC(=O)N(C4CCCCCC4)C3)CC2)c1 (stereo not given)	inactive: -8.2%
COc1ccc(-c2nc3ccccc3c(=O)n2-c2c(C)n(C)n(-c3ccccc3)c2=O)cc1	inconclusive: -118%
CCCCCCc1cc2cc(-c3nnc(-c4ccccc4OC)o3)c(=O)oc2cc1O	inactive: 0.5%
COc1ccc(CC(=O)O/N=C(\N)c2ccc(C)cc2)cc1	inconclusive: 8.8%
COc1cccc(/C=N/n2c(C3CCCCC3)n[nH]c2=S)c1O	inactive: 20.9%
COc1cc(C)c(CN2CC=C(c3ccc(F)cc3)CC2)cc1C	inconclusive: 19.5%
COc1ccc(NC(=O)c2cc(-c3ccc(C)cc3)on2)cc1OC	inconclusive: 37.5%
COc1cc(Cl)cc(CN2CCC(CCC(=O)NC3CC3)CC2)c1OC	inconclusive: -6.8%
